Measurements as given in PMC6953056.
No constants are given. Whether binding was seen depends on the method and setting. Binding seen in cells or lysates may run through a third protein. Some results given as binding are weak or reduced against the parent protein; the word gives no strength. For some of these results: Where a sequence is shown, tags or fusion partners need not be part of it. Values belong to the molecule of their own block, whether it stands above or below them.

Protein sequences, listed by entry. Tags and fused reporters are not part of them. Lines headed by an entry give the natural chain unless they say otherwise; changes in a name come on top.
UniProt Q14587: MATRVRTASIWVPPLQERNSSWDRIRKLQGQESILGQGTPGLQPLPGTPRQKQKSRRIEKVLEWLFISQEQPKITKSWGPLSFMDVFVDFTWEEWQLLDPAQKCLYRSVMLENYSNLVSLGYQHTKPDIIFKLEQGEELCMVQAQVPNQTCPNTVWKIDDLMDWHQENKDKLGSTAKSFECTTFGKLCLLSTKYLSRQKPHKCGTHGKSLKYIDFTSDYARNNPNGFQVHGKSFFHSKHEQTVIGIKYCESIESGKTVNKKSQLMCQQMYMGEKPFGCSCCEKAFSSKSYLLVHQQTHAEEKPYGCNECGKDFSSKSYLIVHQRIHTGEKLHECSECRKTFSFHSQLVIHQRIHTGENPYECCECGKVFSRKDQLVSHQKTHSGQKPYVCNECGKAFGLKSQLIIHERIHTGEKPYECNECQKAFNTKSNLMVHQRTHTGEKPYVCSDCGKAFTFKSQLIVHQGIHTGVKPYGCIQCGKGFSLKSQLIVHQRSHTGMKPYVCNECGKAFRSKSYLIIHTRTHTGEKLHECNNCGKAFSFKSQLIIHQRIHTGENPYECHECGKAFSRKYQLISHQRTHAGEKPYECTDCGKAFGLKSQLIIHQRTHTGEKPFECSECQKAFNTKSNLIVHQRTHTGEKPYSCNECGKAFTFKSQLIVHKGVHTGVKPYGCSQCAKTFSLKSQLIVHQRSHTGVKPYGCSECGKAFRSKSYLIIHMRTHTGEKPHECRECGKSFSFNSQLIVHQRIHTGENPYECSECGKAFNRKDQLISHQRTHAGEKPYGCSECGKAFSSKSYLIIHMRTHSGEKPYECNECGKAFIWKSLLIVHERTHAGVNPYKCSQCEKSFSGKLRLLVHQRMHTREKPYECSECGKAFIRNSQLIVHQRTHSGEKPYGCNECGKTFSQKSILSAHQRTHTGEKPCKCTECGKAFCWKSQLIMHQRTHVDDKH
UniProt Q9Y6K9: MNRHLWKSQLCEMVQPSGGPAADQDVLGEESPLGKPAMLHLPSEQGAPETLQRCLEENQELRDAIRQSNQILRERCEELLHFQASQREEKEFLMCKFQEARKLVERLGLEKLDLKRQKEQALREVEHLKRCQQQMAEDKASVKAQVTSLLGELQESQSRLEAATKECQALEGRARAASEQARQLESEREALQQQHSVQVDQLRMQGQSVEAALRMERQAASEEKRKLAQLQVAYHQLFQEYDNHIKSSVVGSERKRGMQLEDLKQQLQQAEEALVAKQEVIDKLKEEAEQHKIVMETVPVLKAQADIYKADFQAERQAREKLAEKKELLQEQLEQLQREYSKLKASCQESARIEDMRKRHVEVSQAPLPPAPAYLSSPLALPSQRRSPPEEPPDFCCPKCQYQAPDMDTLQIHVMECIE

Columns and labels:
[1] = biological target: flag-tagged ZNF268a (full length) (UniProt Q14587); test: co-IP; HEK293T transfected with the tagged constructs for 24 h; lysis in 20 mM Tris-HCl pH 7.4, 150 mM NaCl, 10% glycerol, 1% NP-40; immunoprecipitation with anti-flag antibody on Dynabeads Protein G at 4 °C overnight; blot with anti-HA or anti-Myc
HA-tagged IKKα = biological target: T1, HA-tagged IKKα (UniProt O15111); test: co-IP; HEK293T transfected with the tagged constructs; same lysis buffer; immunoprecipitation with anti-HA or anti-Myc antibody; blot with anti-flag
T1 sequence: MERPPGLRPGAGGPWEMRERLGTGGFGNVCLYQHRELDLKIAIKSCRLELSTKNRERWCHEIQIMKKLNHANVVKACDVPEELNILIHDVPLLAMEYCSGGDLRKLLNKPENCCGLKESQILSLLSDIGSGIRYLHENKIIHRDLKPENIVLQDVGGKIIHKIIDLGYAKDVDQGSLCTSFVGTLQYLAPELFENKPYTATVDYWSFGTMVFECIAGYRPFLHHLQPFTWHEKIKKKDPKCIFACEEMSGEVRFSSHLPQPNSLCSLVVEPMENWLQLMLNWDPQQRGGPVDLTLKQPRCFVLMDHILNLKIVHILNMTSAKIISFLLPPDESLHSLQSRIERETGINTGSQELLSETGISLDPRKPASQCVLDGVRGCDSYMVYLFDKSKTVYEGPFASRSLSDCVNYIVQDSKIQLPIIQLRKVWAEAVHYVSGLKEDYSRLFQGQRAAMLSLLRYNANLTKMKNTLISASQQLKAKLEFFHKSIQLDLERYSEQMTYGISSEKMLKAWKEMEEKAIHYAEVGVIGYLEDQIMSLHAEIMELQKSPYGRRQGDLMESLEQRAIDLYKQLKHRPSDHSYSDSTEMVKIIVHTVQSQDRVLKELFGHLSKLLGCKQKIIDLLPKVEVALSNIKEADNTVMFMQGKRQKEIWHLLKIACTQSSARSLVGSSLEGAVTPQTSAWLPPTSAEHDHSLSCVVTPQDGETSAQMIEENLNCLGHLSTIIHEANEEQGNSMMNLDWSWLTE

[2] = biological target: T2, HA-tagged IKKα Kinase domain (KD) (UniProt O15111); test: as above
T2 sequence: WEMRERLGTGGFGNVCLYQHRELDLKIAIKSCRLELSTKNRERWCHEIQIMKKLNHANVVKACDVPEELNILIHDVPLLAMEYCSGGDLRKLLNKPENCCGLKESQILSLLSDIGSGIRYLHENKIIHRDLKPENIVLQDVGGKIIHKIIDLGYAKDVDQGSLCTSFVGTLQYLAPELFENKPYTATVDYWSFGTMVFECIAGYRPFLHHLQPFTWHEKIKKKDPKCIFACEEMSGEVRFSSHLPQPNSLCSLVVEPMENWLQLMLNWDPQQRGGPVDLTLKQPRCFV

HA-tagged NEMO = HA-tagged NEMO (UniProt Q9Y6K9); test: as above
[3] = biological target: T3, endogenous IKKα (human (endogenous in HEK293T)) (UniProt O15111); test: co-IP; endogenous proteins, HEK293T with or without SeV infection; immunoprecipitation with anti-IKKα antibody (normal IgG as control)
T3 sequence: T1 sequence

[4] = biological target: T3, endogenous IKKα (human (endogenous in HEK293T)); test: co-IP; endogenous proteins, wild-type and ZNF268a-knockout HEK293T; endogenous IKKα immunoprecipitated; endogenous IKKβ or NEMO blotted
flag-tagged IKKα = biological target: T4, flag-tagged IKKα (UniProt O15111); test: co-IP; wild-type and ZNF268a-knockout HEK293T co-transfected with tagged IKKα and Myc-IKKβ or HA-NEMO; exogenous IKKα immunoprecipitated; partner blotted
T4 sequence: T1 sequence

- binding [1]: no binding
Molecule: HA-tagged NEMO (from UniProt Q9Y6K9 1-419)

- binding (HA-tagged IKKα): binds
- binding [2]: no binding
- binding (HA-tagged NEMO): no binding
Molecule: flag-tagged ZNF268a (full length) (from UniProt Q14587-1 1-947)

- binding [3]: binds
Molecule: endogenous ZNF268a (from UniProt Q14587-1 1-947)

- binding [4]: binds
B1: endogenous IKKβ (protein, UniProt O14920 1-756)
chain: MSWSPSLTTQTCGAWEMKERLGTGGFGNVIRWHNQETGEQIAIKQCRQELSPRNRERWCLEIQIMRRLTHPNVVAARDVPEGMQNLAPNDLPLLAMEYCQGGDLRKYLNQFENCCGLREGAILTLLSDIASALRYLHENRIIHRDLKPENIVLQQGEQRLIHKIIDLGYAKELDQGSLCTSFVGTLQYLAPELLEQQKYTVTVDYWSFGTLAFECITGFRPFLPNWQPVQWHSKVRQKSEVDIVVSEDLNGTVKFSSSLPYPNNLNSVLAERLEKWLQLMLMWHPRQRGTDPTYGPNGCFKALDDILNLKLVHILNMVTGTIHTYPVTEDESLQSLKARIQQDTGIPEEDQELLQEAGLALIPDKPATQCISDGKLNEGHTLDMDLVFLFDNSKITYETQISPRPQPESVSCILQEPKRNLAFFQLRKVWGQVWHSIQTLKEDCNRLQQGQRAAMMNLLRNNSCLSKMKNSMASMSQQLKAKLDFFKTSIQIDLEKYSEQTEFGITSDKLLLAWREMEQAVELCGRENEVKLLVERMMALQTDIVDLQRSPMGRKQGGTLDDLEEQARELYRRLREKPRDQRTEGDSQEMVRLLLQAIQSFEKKVRVIYTQLSKTVVCKQKALELLPKVEEVVSLMNEDEKTVVRLQEKRQKELWNLLKIACSKVRGPVSGSPDSMNASRLSQPGQLMSQPSTASNSLPEPAKKSEELVAEAHNLCTLLENAIQDTVREQDQSFTALDWSWLQTEEEEHSCLEQAS

- binding (flag-tagged IKKα): binds
B2: Myc-tagged IKKβ (protein, UniProt O14920 1-756)
chain: B1 chain
